From patent publication US20130035361A1, “USE OF ERGOTHIONEINE AS A PRESERVATIVE IN FOODS AND BEVERAGES” (priority 2007, published 2013) come the findings set out here.

The series is described as follows: Taste of wine / food and beverages after storage. Conditions: Pinot noir wines, SO2 replaced in whole or in part at bottling; after 18 months of storage.

On to `C[N+](C)(C)[C@@H](Cc1c[nH]c(=S)[nH]1)C(=O)[O-]` [L-ergothioneine], for which the “impact on taste of the resultant wine” value is listed as “did not result in any deleterious impact on taste”.
